Measurements from PubChem BioAssay AID1439 (NMMLSC, 2008).
In all, about 220,000 compounds went through this assay and about 770 (0.35%) were called active. Inconclusive means that the source gave no clear call. Such entries were picked first, then a sample of the others. No stated cut-off is given here; in the data, active means binding response below about 49% or above about 150%; inconclusive means no clear call, values can overlap the other calls; inactive means in between.

The chains behind the UniProt entries cited, without tags or fusion partners.
UniProt P09471, whole entry, looked up: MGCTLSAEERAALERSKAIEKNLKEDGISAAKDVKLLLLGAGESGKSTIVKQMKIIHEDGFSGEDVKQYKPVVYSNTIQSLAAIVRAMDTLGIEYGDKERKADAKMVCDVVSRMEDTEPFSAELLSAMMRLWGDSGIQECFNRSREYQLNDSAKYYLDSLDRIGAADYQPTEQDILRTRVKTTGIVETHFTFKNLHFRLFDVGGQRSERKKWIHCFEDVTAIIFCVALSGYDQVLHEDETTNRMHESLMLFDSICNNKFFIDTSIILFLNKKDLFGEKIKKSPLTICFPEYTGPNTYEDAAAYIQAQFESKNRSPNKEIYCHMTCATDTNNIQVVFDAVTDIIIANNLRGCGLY

The compounds below were run against Guanine nucleotide-binding protein G(o) subunit alpha (Homo sapiens) (UniProt P09471) (assay: RGS7-Galphao binding modulators, primary screen, biochemical, multiplexed bead flow cytometry (AID 1439;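 further: fluorescent Galphao held in activated GDP-AlF4 state binding bead-coupled RGS7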)). Settings: at 10 µM, actives lie on both sides.

Structure (SMILES) | binding response (% of control)
COc1ccc(CN(N=O)C2CC(=O)N(c3ccc(OC)cc3)C2=O)cc1 (stereo not drawn) | inconclusive: 115%
CC(=O)N/C(N)=N/c1nc2cc(C)ccc2o1 | inconclusive: 82.4%
CN1CCN(CCCNC(=O)c2ccc3c(c2)N(Cc2ccccc2)CCS3)CC1 | inactive: 134%
COc1ccc(N=C(c2ccccc2)c2c(C)[nH]n(-c3ccccc3)c2=O)c(OC)c1 | inconclusive: 113%
Cc1cc2c(NC(=O)Nc3ccc(F)cc3)cccc2nn1 | inconclusive: 136%
CCOC(=O)/C(=C\c1cccc(O)c1)c1nc2sc(C)c(C)c2c(=O)[nH]1 | inactive: 128%
COc1ccc(CNCC(O)(c2ccccc2)c2ccccc2)cc1OC | inconclusive: 101%
COc1ccc(NC(=O)c2cc(S(=O)(=O)Nc3ccc(OC)cc3)cs2)cc1 | inconclusive: 107%
CCOc1ccc2nc(NCCNC(=O)C(C)C)c(C)cc2c1 | inactive: 111%
Cc1nnc(SC(C(=O)Nc2cc(Cl)cc(Cl)c2)c2ccccc2)[nH]c1=O (stereo not drawn) | inconclusive: 107%
CC(C)OCCCNC(=O)C1CCN(S(=O)(=O)N2CCCC2)CC1 | inactive: 99.5%
CCOC(=O)C1CCN(c2nc3c(C)cccn3c(=O)c2/C=C(\C#N)S(=O)(=O)c2ccccc2)CC1 | inconclusive: 98.8%
NC(=O)c1c(NC(=O)Cn2cnc([N+](=O)[O-])n2)sc2c1CCCC2 | inconclusive: 107%
COc1cc(-c2csc(N3CCOCC3)n2)cc(OC)c1OC | inactive: 102%
CCN(c1ccccc1)c1nc2nonc2nc1NCCO | inconclusive: 118%
O=S1(=O)CC(O)C(N=Nc2c(O)n(Cc3ccccc3)c3ccccc23)C1 (stereo not drawn) | inconclusive: 119%
CN(Cc1ccccc1)C(=O)C1CCCN(Cc2cccc(Cl)c2)C1 (stereo not drawn) | inactive: 101%
O=C(/C=C/c1ccccn1)c1cc(Cl)cc(Cl)c1O | inconclusive: 247%
Cc1cccc(C(=O)Nc2sc3c(c2C(=O)O)CCC3)c1 | inconclusive: 115%
COc1ccc(C2C(C(=O)O)CCC(=O)N2c2ccc(C)cc2)cc1OC (stereo not drawn) | inconclusive: 98.7%

Structure (SMILES) | binding response (% of control)
CCOC(=O)C1=C(c2ccccc2)Nc2ncnn2C1c1ccc(O)cc1 (stereo not drawn) | inconclusive: 95.8%
CCCC(=O)Nc1c(-c2ccccc2OC)c(=O)c2ccccc2n1C | inconclusive: 139%
CCOC(=O)c1ccc(N2C(=O)CC(NNC(=O)c3ccc(Br)s3)C2=O)cc1 (stereo not drawn) | inconclusive: 112%
COc1ccc(C(=O)NCc2nnc(SCCOc3ccccc3)n2C)cc1 | inconclusive: 141%
CCOC(=O)COc1c(/C=N\OC)cc(Cl)cc1OC | inactive: 100%
O=C(CN1c2ccccc2Sc2ccccc21)NNC(=S)Nc1ccc(Cl)cc1 | inconclusive: 95.5%
Nc1cccc2c1C(=O)N(C(=O)/C=C/c1ccc(F)cc1)C2=O | inconclusive: 104%
CN1/C(=C\C(=S)Nc2ccccc2)C(C)(C)c2ccccc21 | inconclusive: 102%
CC(=O)Nc1scc(C)c1-c1nc2ccccc2s1 | inconclusive: 117%
Cc1ccc2oc(-c3cccc(NC(=O)C4CCCO4)c3)nc2c1 (stereo not drawn) | inactive: 102%
Cc1ccc(N2CCC(N3CCN(C4CCCCC4)C(CCO)C3)CC2)cc1 (stereo not drawn) | inactive: 103%
N#Cc1c(/N=C/c2cccnc2)sc2c1CCCC2 | inconclusive: 106%
O=C(CC(=O)Nc1ccccc1C(=O)O)NNC(=O)Cc1ccccc1 | inconclusive: 142%
CO/N=C/C=C1/N(C)c2ccccc2C1(C)C | inconclusive: 95.5%
CCOC(CCc1c(C)nc(NC(C)=O)[nH]c1=O)OCC | inconclusive: 116%
COc1ccc(NC(=O)CCl)cn1 | inconclusive: 124%
CCN(CC)CCN1C(=O)C(O)=C(C(=O)c2cc3cccc(OC)c3o2)C1c1ccc(F)cc1 (stereo not drawn) | inconclusive: 95.7%
Cc1sc2ncnc(NCCCn3ccnc3)c2c1C | inactive: 100%
c1ccc(CCN2CN=C(Nc3nc4ccccc4s3)NC2)cc1 | inconclusive: 104%
CN(CC(=O)NC(=O)NCc1ccco1)CC(=O)Nc1ccccc1Cl | inconclusive: 104%

Retrieved one by one from the entries so far (3):
Structure (SMILES) | binding response (% of control)
O=C(CC(=O)Nc1ccccc1C(=O)O)NNC(=O)Cc1ccccc1 | inconclusive: 142%
CO/N=C/C=C1/N(C)c2ccccc2C1(C)C | inconclusive: 95.5%
CCOC(=O)c1ccc(N2C(=O)CC(NNC(=O)c3ccc(Br)s3)C2=O)cc1 (stereo not drawn) | inconclusive: 112%

Further records follow:

Structure (SMILES) | binding response (% of control)
CC(=O)N=c1c(C#N)cc2c(=O)n3cccc(C)c3nc2n1CCCOC(C)C | inconclusive: -536%
Cc1cccc(C)c1OCCNC(=O)c1ccc2ccccc2n1 | inconclusive: 107%
CC(C)NC(=O)COC(=O)C1CSC2(c3ccc(Br)cc3)CCC(=O)N12 (stereo not drawn) | inconclusive: 94.7%
Cc1[nH]c2ccccc2c1CN1CCN(c2ccccn2)CC1 | inconclusive: 95.8%
CC(=O)Nc1ccc(S(=O)(=O)NCC(=O)OCC(=O)NC(=O)c2cccn2C)cc1 | inconclusive: 110%
CC(C)CC(=O)N/C(N)=N/c1nc2ccccc2o1 | inconclusive: 167%
CN(C)c1nc(N2CCOCC2)nc(N(c2ccccc2)c2ccccc2)n1 | inactive: 104%
CC(C)(C)C(=O)CSc1nnc(Nc2ccccc2)s1 | inactive: 95.7%
Cc1cc(-c2cc(C(=O)NC3CCCC3)on2)nc(NC2CCCC2)n1 | inconclusive: 109%
O=C(Nc1cc(=O)[nH]c2ncnn12)c1ccco1 | inconclusive: 104%
NC(=O)c1ccsc1NC(=O)COC(=O)Cc1cccc2ccccc12 | inactive: 102%
CC(Sc1nnc(Cc2cccs2)n1C1CCCCC1)C(=O)N1CCc2ccccc21 (stereo not drawn) | inactive: 104%
COC(=O)C1=C(C(=O)OC)[C@@H]2N(C)c3ccccc3[C@@]23C[C@@H](C(=O)OC)N(C(=O)c2cccs2)C3=N1 | inconclusive: 96.6%
Cn1nc(C(F)(F)F)c(-c2cccc(C(F)(F)F)c2)c1NC(=O)CSCC(=O)O | inconclusive: 88.7%
Cc1cc(C)cc(NC(=O)NC2CCN(CC(=O)Nc3cccc(Cl)c3C)CC2)c1 | inconclusive: 92.8%
COc1ccc(-c2[nH]ncc2CNCCc2ncccc2C)cc1F | inactive: 97.6%
COc1cccc(NC(=S)N(CCN(C)C)C(C)c2ccncc2)c1 (stereo not drawn) | inconclusive: 98.5%
CCN(CC)C(=O)Cn1cc(S(=O)(=O)CC(=O)NCc2ccc3c(c2)OCO3)c2ccccc21 | inconclusive: 94.4%
